Assay results reported in PMC10866661.
No constants are given. Whether binding was seen depends on the method and setting. Binding seen in cells or lysates may run through a third protein. Some entries that bind do so weakly or less than the wild type. Tags and fused reporters may be left off the sequences shown.

Target: T1, FLAG-tagged COPA p.R1142X (truncated C-terminal domain mutant) (human) (UniProt P53621)
T1 sequence: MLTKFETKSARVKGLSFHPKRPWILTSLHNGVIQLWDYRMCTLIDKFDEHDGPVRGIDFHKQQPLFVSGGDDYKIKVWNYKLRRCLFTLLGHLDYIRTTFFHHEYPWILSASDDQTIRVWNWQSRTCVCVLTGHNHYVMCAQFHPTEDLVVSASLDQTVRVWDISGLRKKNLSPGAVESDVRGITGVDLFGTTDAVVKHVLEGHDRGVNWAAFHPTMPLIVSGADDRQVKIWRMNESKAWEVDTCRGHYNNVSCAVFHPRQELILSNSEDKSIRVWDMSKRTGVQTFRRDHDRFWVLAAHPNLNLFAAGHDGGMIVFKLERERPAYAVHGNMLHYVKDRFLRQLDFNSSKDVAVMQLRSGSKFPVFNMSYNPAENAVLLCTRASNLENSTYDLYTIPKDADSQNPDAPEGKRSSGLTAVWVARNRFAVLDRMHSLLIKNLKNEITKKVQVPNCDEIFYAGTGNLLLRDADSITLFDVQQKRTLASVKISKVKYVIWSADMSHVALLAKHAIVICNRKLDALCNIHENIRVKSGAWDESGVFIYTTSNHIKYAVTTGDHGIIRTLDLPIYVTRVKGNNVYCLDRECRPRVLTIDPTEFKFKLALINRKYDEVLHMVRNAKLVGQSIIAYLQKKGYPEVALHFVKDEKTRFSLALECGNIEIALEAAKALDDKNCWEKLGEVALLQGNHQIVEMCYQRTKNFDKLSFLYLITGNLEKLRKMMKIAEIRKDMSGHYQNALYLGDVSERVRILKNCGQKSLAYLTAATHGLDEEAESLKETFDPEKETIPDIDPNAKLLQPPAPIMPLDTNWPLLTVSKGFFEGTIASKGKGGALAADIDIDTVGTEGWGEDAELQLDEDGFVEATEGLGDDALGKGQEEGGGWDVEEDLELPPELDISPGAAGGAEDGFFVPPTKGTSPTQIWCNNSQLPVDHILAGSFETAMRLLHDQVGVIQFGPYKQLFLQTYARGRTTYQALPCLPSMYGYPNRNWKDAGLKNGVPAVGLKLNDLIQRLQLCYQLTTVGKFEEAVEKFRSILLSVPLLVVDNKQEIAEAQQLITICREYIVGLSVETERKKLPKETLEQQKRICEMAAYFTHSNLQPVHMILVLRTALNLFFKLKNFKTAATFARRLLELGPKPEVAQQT
Assay: co-IP; HEK293T cells cotransfected with FLAG-tagged WT or mutant COPA, COPB2 and COPE; whole-cell extract 48 h after transfection incubated overnight with anti-DDK (FLAG) antibody, Protein G magnetic beads, washes with PBS 0.1% Tween-20; immunoblot of eluate and input for FLAG, COPB2 and COPE

B1: COPB2 (protein, UniProt P35606 1-906)
chain: MPLRLDIKRKLTARSDRVKSVDLHPTEPWMLASLYNGSVCVWNHETQTLVKTFEVCDLPVRAAKFVARKNWVVTGADDMQIRVFNYNTLERVHMFEAHSDYIRCIAVHPTQPFILTSSDDMLIKLWDWDKKWSCSQVFEGHTHYVMQIVINPKDNNQFASASLDRTIKVWQLGSSSPNFTLEGHEKGVNCIDYYSGGDKPYLISGADDRLVKIWDYQNKTCVQTLEGHAQNVSCASFHPELPIIITGSEDGTVRIWHSSTYRLESTLNYGMERVWCVASLRGSNNVALGYDEGSIIVKLGREEPAMSMDANGKIIWAKHSEVQQANLKAMGDAEIKDGERLPLAVKDMGSCEIYPQTIQHNPNGRFVVVCGDGEYIIYTAMALRNKSFGSAQEFAWAHDSSEYAIRESNSIVKIFKNFKEKKSFKPDFGAESIYGGFLLGVRSVNGLAFYDWDNTELIRRIEIQPKHIFWSDSGELVCIATEESFFILKYLSEKVLAAQETHEGVTEDGIEDAFEVLGEIQEIVKTGLWVGDCFIYTSSVNRLNYYVGGEIVTIAHLDRTMYLLGYIPKDNRLYLGDKELNIISYSLLVSVLEYQTAVMRRDFSMADKVLPTIPKEQRTRVAHFLEKQGFKQQALTVSTDPEHRFELALQLGELKIAYQLAVEAESEQKWKQLAELAISKCQFGLAQECLHHAQDYGGLLLLATASGNANMVNKLAEGAERDGKNNVAFMSYFLQGKVDACLELLIRTGRLPEAAFLARTYLPSQVSRVVKLWRENLSKVNQKAAESLADPTEYENLFPGLKEAFVVEEWVKETHADLWPAKQYPLVTPNEERNVMEEGKDFQPSRSTAQQELDGKPASPTPVIVASHTANKEEKSLLELEVDLDNLELEDIDTTDINLDEDILDD
Question: For B1, which binding is on record?
Answer: Its binding is “binds”.
